# Patent US8796180B2, “Aminoquinazoline compounds for combating invertebrate pests” (BASF SE, priority 2009, dated 2014)
# Some entries share one result that the patent states for a list of compounds.
# Tests used:
# [1] = test system: Southern Armyworm (Spodoptera eridania, 2nd instar larvae); assay: Southern Armyworm foliar spray test on lima bean plants (B.1); assay type: in vivo; conditions: 300 ppm, assessed 4 days after treatment
# Protocol: B.1 Southern Armyworm (Spodoptera eridania, 2nd instar larvae)
# The active compounds were formulated in cyclohexanone as a 10,0000 ppm solution supplied in 1.3 ml ABgene® tubes. These tubes were inserted into an automated electrostatic sprayer equipped with an atomizing nozzle and they served as stock solutions for which lower dilutions were made in 50% acetone: 50% water (v/v). A nonionic surfactant (Kinetic®) was included in the solution at a volume of 0.01% (v/v). Lima bean plants (variety Sieva) were grown 2 plants to a pot and selected for treatment at the 1st true leaf stage. Test solutions were sprayed onto the foliage by an automated electrostatic plant sprayer equipped with an atomizing spray nozzle. The plants were dried in the sprayer fume hood and then removed from the sprayer. Each pot was placed into perforated plastic bags with a zip closure. Ten to 11 armyworm larvae were placed into the bag and the bags zipped closed. Test plants were maintained in a growth room at 25° C. and 20-40% relative humidity for 4 days, avoiding direct exposure to fluorescent light (24 hour photoperiod) to prevent trapping of heat inside the bags. Mortality and reduced feeding were assessed 4 days after treatment, compared to untreated control plants.
# [2] = test system: Diamondback moth (Plutella xylostella); assay: Diamondback moth leaf-dip test on Chinese cabbage (B.4); assay type: in vivo; conditions: test concentration 500 ppm; dipped Chinese cabbage leaves; mortality recorded 24, 72 and 120 hours after treatment
# Protocol: B.4 Diamondback moth (Plutella xylostella)
# The active compound was dissolved at the desired concentration in a mixture of 1:1 (vol:vol) distilled water:acetone. The test solution was prepared at the day of use.
# The activity against Plutella xylostella can be tested by the following experiments:
# Leaves of Chinese cabbage were dipped in test solution and air-dried. Treated leaves were placed in petri dished lined with moist filter paper. Mortality was recorded 24, 72, and 120 hours after treatment.
Structure (SMILES),mortality in comparison with untreated controls [1],mortality in comparison with untreated controls [2]
CON=C(CNc1nc(-c2ccc(Cl)cc2)nc2cc(C(F)(F)F)ccc12)c1ccccc1 [I-1],at least 50%,at least 50%
CC(COC(C)(C)C)Nc1nc(-c2ccc(Cl)cc2)nc2cc(C(F)(F)F)ccc12 (stereo not shown) [I-2],at least 50%,
CC(C)C1OCC(CNc2nc(-c3ccc(Cl)cc3)nc3cc(C(F)(F)F)ccc23)O1 (stereo not shown) [I-3],at least 50%,
CC(C)COCC(C)Nc1nc(-c2ccc(Cl)cc2)nc2cc(C(F)(F)F)ccc12 (stereo not shown) [I-4],at least 50%,at least 50%
O=C1SCCC1Nc1nc(-c2ccc(Cl)cc2)nc2cc(C(F)(F)F)ccc12 (stereo not shown) [I-21],at least 50%,at least 50%
CC(=O)CNc1nc(-c2ccc(Cl)cc2)nc2cc(C(F)(F)F)ccc12 [I-23],at least 50%,at least 50%
FC(F)(F)c1ccc2c(NC3CCCCC3)nc(-c3ccc(Cl)cc3)nc2c1 [I-30],at least 50%,
CC(=O)NCCNc1nc(-c2ccc(Cl)cc2)nc2cc(C(F)(F)F)ccc12 [I-36],,at least 50%
FC(F)(F)c1ccc2c(NCCc3cccs3)nc(-c3ccc(Cl)cc3)nc2c1 [I-48],,at least 50%
N=C(Nc1nc(-c2ccc(Cl)cc2)nc2cc(C(F)(F)F)ccc12)NC1CCCC1 [I-51],,at least 50%
N#CNC(=N)Nc1nc(-c2ccc(Cl)cc2)nc2cc(C(F)(F)F)ccc12 [I-52],,at least 50%
C#CCN(CCC)c1nc(-c2ccc(Cl)cc2)nc2cc(C(F)(F)F)ccc12 [I-53],at least 50%,
CC(C)=CCCC(C)Nc1nc(-c2ccc(Cl)cc2)nc2cc(C(F)(F)F)ccc12 (stereo not shown) [I-54],at least 50%,at least 50%
CC(Nc1nc(-c2ccc(Cl)cc2)nc2cc(C(F)(F)F)ccc12)C1(C)OCCO1 (stereo not shown) [I-67],at least 50%,
FC(F)(F)c1ccc2c(NCC3CC3(Cl)Cl)nc(-c3ccc(Cl)cc3)nc2c1 (stereo not shown) [I-88],at least 50%,at least 50%
FC(F)(F)c1ccc2c(NCC3OCCO3)nc(-c3ccc(Cl)cc3)nc2c1 [I-91],at least 50%,
CC=CC(C)Nc1nc(-c2ccc(Cl)cc2)nc2cc(C(F)(F)F)ccc12 (stereo not shown) [I-94],at least 50%,at least 50%
CC(C)(O)CCNc1nc(-c2ccc(Cl)cc2)nc2cc(C(F)(F)F)ccc12 [I-103],,at least 50%
CNc1nc(-c2ccc(Cl)cc2)nc2cc(C(F)(F)F)ccc12 [I-110],at least 50%,at least 50%
CC(Nc1nc(-c2ccc(Cl)cc2)nc2cc(C(F)(F)F)ccc12)C(C)(C)C (stereo not shown) [I-123],at least 50%,

Structure (SMILES),mortality in comparison with untreated controls [1],mortality in comparison with untreated controls [2]
CCC1(C(C)Nc2nc(-c3ccc(Cl)cc3)nc3cc(C(F)(F)F)ccc23)OCCO1 (stereo not shown) [I-128],at least 50%,
FC(F)(F)c1ccc2c(NC(C3CC3)C3CC3)nc(-c3ccc(Cl)cc3)nc2c1 [I-136],at least 50%,at least 50%
CC(=O)OCCNc1nc(-c2ccc(Cl)cc2)nc2cc(C(F)(F)F)ccc12 [I-142],,at least 50%
COC1CC(CNc2nc(-c3ccc(Cl)cc3)nc3cc(C(F)(F)F)ccc23)C(OC)O1 (stereo not shown) [I-143],at least 50%,at least 50%
COC(C)CCNc1nc(-c2ccc(Cl)cc2)nc2cc(C(F)(F)F)ccc12 (stereo not shown) [I-167],at least 50%,
COC(=O)C(Nc1nc(-c2ccc(Cl)cc2)nc2cc(C(F)(F)F)ccc12)C(C)C (stereo not shown) [I-172],at least 50%,
CC1OCC(CNc2nc(-c3ccc(Cl)cc3)nc3cc(C(F)(F)F)ccc23)O1 (stereo not shown) [I-175],at least 50%,
COCCC(C)Nc1nc(-c2ccc(Cl)cc2)nc2cc(C(F)(F)F)ccc12 (stereo not shown) [I-176],at least 50%,at least 50%
FC(F)(F)c1ccc2c(NCC=CCl)nc(-c3ccc(Cl)cc3)nc2c1 [I-177],at least 50%,at least 50%
CCC(Nc1nc(-c2ccc(Cl)cc2)nc2cc(C(F)(F)F)ccc12)C1(CC)OCC(C)O1 (stereo not shown) [I-183],at least 50%,
CC(Nc1nc(-c2ccc(Cl)cc2)nc2cc(C(F)(F)F)ccc12)C1(C)OCC(C)(C)CO1 (stereo not shown) [I-184],at least 50%,
CCOCC(CC)Nc1nc(-c2ccc(Cl)cc2)nc2cc(C(F)(F)F)ccc12 (stereo not shown) [I-185],at least 50%,at least 50%
C=C(C)C(C)Nc1nc(-c2ccc(Cl)cc2)nc2cc(C(F)(F)F)ccc12 (stereo not shown) [I-186],at least 50%,at least 50%
CC(C)C(Nc1nc(-c2ccc(Cl)cc2)nc2cc(C(F)(F)F)ccc12)c1ccccc1 (stereo not shown) [I-187],at least 50%,at least 50%
N#CCCNc1nc(-c2ccc(Cl)cc2)nc2cc(C(F)(F)F)ccc12 [I-192],at least 50%,
C#CC(C)(CCC)Nc1nc(-c2ccc(Cl)cc2)nc2cc(C(F)(F)F)ccc12 (stereo not shown) [I-198],at least 50%,at least 50%
CCCNc1nc(-c2ccc(/C=N\OCCC)cc2)nc2cc(C(F)(F)F)ccc12 [I-245],at least 50%,
CCCNc1nc(-c2ccc(/C=N\OC/C=C/Cl)cc2)nc2cc(C(F)(F)F)ccc12 [I-246],at least 50%,
C/C=C/CO/N=C\c1ccc(-c2nc(NCCC)c3ccc(C(F)(F)F)cc3n2)cc1 [I-248],at least 50%,
C=C(Cl)CO/N=C\c1ccc(-c2nc(NCCC)c3ccc(C(F)(F)F)cc3n2)cc1 [I-249],at least 50%,

Structure (SMILES),mortality in comparison with untreated controls [1],mortality in comparison with untreated controls [2]
C#CCO/N=C\c1ccc(-c2nc(NCCC)c3ccc(C(F)(F)F)cc3n2)cc1 [I-250],at least 50%,
CCCNc1nc(-c2ccc(/C=N\OCC(C)C)cc2)nc2cc(C(F)(F)F)ccc12 [I-251],at least 50%,
CCCNc1nc(-c2ccc(/C=N\OC3CCCCC3)cc2)nc2cc(C(F)(F)F)ccc12 [I-252],at least 50%,
C#CC(C)O/N=C\c1ccc(-c2nc(NCCC)c3ccc(C(F)(F)F)cc3n2)cc1 (stereo not shown) [I-253],at least 50%,
CCCNc1nc(-c2ccc(/C=N\OCC)cc2)nc2cc(C(F)(F)F)ccc12 [I-254],at least 50%,
CCCNc1nc(-c2ccc(Oc3ccc(F)cc3)cc2)nc2cc(C(F)(F)F)ccc12 [I-268],at least 50%,at least 50%
CCCNc1nc(-c2ccc(Oc3ccccc3F)cc2)nc2cc(C(F)(F)F)ccc12 [I-297],at least 50%,at least 50%
CCNc1nc(-c2cc(F)c(Cl)cc2F)nc2cc(C(F)(F)F)ccc12 [I-305],at least 50%,
CCCNc1nc(-c2ccc(-c3noc(C)n3)cc2)nc2cc(C(F)(F)F)ccc12 [I-308],at least 50%,
CCCNc1nc(-c2ccc(-c3cnco3)cc2)nc2cc(C(F)(F)F)ccc12 [I-309],at least 50%,
CCCNc1nc(-c2ccc(-n3ccc(C(F)(F)F)n3)cc2)nc2cc(C(F)(F)F)ccc12 [I-310],at least 50%,
CCCNc1nc(-c2ccc(-n3cccn3)cc2)nc2cc(C(F)(F)F)ccc12 [I-311],at least 50%,
CCCNc1nc(-c2ccc(-n3cncn3)cc2)nc2cc(C(F)(F)F)ccc12 [I-312],at least 50%,
CCCNc1nc(-c2ccc(-c3ccco3)cc2)nc2cc(C(F)(F)F)ccc12 [I-313],,at least 50%
CCCNc1nc(-c2ccc(-n3nc(C)cc3C)cc2)nc2cc(C(F)(F)F)ccc12 [I-323],at least 50%,
CCCNc1nc(-c2ccc(-c3cnn(C)c3)cc2)nc2cc(C(F)(F)F)ccc12 [I-327],at least 50%,
COc1cc2c(NCC3CC3)nc(-c3ccc(Cl)cc3)nc2cc1C(F)(F)F [I-421],at least 50%,
CCCNc1nc(-c2ccc(Cl)cc2)nc2cc(C(F)(F)F)c(I)cc12 [I-451],at least 50%,
